# Results: PMC5946489, “Inactivation of the tight junction gene CLDN11 by aberrant hypermethylation modulates tubulins polymerization and promotes cell migration in nasopharyngeal carcinoma”
# Protein sequences, listed by entry. Tags and fused reporters are not part of them.
# UniProt P68363: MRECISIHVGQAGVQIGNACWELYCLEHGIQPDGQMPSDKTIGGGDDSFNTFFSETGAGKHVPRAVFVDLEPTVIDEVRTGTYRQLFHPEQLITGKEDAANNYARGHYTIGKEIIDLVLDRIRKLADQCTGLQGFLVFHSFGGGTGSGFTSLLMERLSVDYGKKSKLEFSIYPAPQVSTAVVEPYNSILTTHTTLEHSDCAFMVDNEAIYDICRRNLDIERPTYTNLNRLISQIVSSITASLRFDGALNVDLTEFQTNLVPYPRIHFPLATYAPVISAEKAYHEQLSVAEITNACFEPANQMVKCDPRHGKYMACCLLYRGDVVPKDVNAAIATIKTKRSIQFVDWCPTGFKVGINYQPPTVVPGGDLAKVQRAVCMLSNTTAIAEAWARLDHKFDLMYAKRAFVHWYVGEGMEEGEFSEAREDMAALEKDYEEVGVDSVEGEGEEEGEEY
# UniProt Q13509: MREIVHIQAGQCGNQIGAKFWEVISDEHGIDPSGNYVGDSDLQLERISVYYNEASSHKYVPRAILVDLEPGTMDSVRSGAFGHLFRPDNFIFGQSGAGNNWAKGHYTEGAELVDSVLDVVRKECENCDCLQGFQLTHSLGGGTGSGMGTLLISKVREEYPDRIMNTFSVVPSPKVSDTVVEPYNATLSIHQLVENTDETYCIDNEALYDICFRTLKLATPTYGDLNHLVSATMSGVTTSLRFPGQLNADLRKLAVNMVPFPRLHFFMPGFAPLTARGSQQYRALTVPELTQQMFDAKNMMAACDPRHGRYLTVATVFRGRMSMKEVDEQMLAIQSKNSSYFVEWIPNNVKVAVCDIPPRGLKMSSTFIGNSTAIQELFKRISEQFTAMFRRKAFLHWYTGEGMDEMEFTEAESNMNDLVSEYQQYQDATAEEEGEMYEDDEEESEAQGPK
# Results are given in words; binding and its absence hold for the method and conditions named. Binding seen in cells or lysates may run through a third protein. A yes stands for co-enrichment or nearness to the bait. Other partners may have been found. Where a sequence is shown, tags or fusion partners need not be part of it.
# Target: T1, FLAG-tagged CLDN11-3F (claudin 11) (human) (UniProt O75508)
# T1 sequence: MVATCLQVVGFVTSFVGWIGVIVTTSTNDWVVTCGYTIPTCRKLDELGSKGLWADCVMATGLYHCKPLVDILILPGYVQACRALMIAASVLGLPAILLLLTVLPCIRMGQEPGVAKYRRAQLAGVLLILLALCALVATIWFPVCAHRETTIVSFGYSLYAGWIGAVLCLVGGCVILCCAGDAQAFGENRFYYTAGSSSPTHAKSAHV
# Assay: affinity purification with mass spectrometry; TW02 cells transfected with FLAG-tagged CLDN11 or vector control, harvested after 48 h; cell extracts precipitated with FLAG M2 beads; SDS-PAGE lanes sliced, trypsin-digested, LC-MS/MS with spectral counting
row,binding,Substance
1,binds,tubulin alpha-1B (TUBA1B) (from UniProt P68363 1-451)
2,binds,tubulin beta-3 (TUBB3) (from UniProt Q13509 1-450)
